“And” between values parts separate entries of the source, which are not always exact repeats. Equal values may be shown once.
What was measured:
[1] = tested on: HFF-1 human fibroblasts; test: Cytotoxicity in HFF-1 cells (MTS tetrazolium assay); assay type: cell-based; conditions: selectivity index, CC50 HFF-1/IC50 T. cruzi
Description: (§1) The cytotoxicities of the compounds against HFF-1 fibroblasts and HepG2 hepatocytes were evaluated using the MTS tetrazolium assay (Promega, Madison, WI) (Barltrop et al., [1991]). HFF-1 fibroblasts were seeded at 2 × 10^3/well in 96-well culture plates in RPMI 1640 without phenol red supplemented with 10% FCS and incubated overnight (37°C, 5% CO2). HepG2 hepatocytes were seeded at 6 × 10^3/well in 96-well culture plates in DMEM (Cultilab, Campinas SP) supplemented with 10% FCS and incubated overnight (37°C, 5% CO2). The compounds were added in 3-fold serial dilutions, and the plates were incubated at 37°C with 5% CO2. Each compound concentration was evaluated in triplicate. All plates included doxorubicin (Sigma-Aldrich, St. Louis, MO) as a positive control and untreated wells (100% growth) as a negative control. After 72 h, 20 μL of MTS was added, and the plates were incubated for 4 h. The absorbance was measured at 490 nm in an automated microplate reader, and the data were transferred to SigmaPlot 10.0 (Systat Software Inc., Erkrath, Germany) for IC50 value calculation. The percent of nonviable cells was determined and compared to the negative control wells (100% growth).

[2] = tested on: HepG2 human hepatocytes; test: Cytotoxicity in HepG2 cells (MTS tetrazolium assay); assay type: cell-based; conditions: selectivity index, CC50 HepG2/IC50 T. cruzi
Description: as §1

For CC(C)C[C@@H](C(=O)OCC(=O)Nc1ccc2ccccc2c1)N1C(=O)C2CC=CCC2C1=O (stereo partly drawn) [3i, 2-(naphthalen-2-ylamino)-2-oxoethyl (2S)-2-(1,3-dioxo-1,3,3a,4,7,7a-hexahydro-2H-isoindol-2-yl)-4-methylpentanoate], which “SI HFF-1/T. cruzi” value [1] is on record?
The value was over 3.

And the “SI HepG2/T. cruzi” value [2]?
Its value is 1.4.

Which results are given for COc1ccc(NC(=O)COC(=O)[C@H](CC(C)C)N2C(=O)C=CC2=O)cc1Cl [10c, 2-((3-chloro-4-methoxyphenyl)amino)-2-oxoethyl (S)-2-(2,5-dioxo-2,5-dihydro-1H-pyrrol-1-yl)-4-methylpentanoate]?
SI HFF-1/T. cruzi [1]: > 10 and 13.3; SI HepG2/T. cruzi [2]: 36.6

What does the source list for COc1ccc(NC(=O)COC(=O)[C@H](CC(C)C)N2C(=O)CCC2=O)cc1Cl [10d, 2-((3-chloro-4-methoxyphenyl)amino)-2-oxoethyl (S)-2-(2,5-dioxopyrrolidin-1-yl)-4-methylpentanoate]?
SI HFF-1/T. cruzi [1]: >5; SI HepG2/T. cruzi [2]: >3

Which results are given for COc1ccc(NC(=O)COC(=O)[C@H](CC(C)C)N2C(=O)C=C(C)C2=O)cc1Cl [10e, 2-((3-chloro-4-methoxyphenyl)amino)-2-oxoethyl (S)-4-methyl-2-(3-methyl-2,5-dioxo-2,5-dihydro-1H-pyrrol-1-yl)pentanoate]?
SI HFF-1/T. cruzi [1]: 4; SI HepG2/T. cruzi [2]: 4.2

Which results are given for COc1ccc(NC(=O)COC(=O)[C@H](CC(C)C)N2C(=O)C(Cl)=C(Cl)C2=O)cc1Cl [10f, 2-((3-chloro-4-methoxyphenyl)amino)-2-oxoethyl (S)-2-(3,4-dichloro-2,5-dioxo-2,5-dihydro-1H-pyrrol-1-yl)-4-methylpentanoate]?
SI HFF-1/T. cruzi [1]: > 10 and 16.5; SI HepG2/T. cruzi [2]: > 32

What does the source list for COc1ccc(NC(=O)COC(=O)[C@H](Cc2ccccc2)N2C(=O)C=CC2=O)cc1Cl [10j, 2-((3-chloro-4-methoxyphenyl)amino)-2-oxoethyl (S)-2-(2,5-dioxo-2,5-dihydro-1H-pyrrol-1-yl)-3-phenylpropanoate]?
SI HFF-1/T. cruzi [1]: > 10 and 15.7; SI HepG2/T. cruzi [2]: 67

Which results are given for COc1ccc(NC(=O)COC(=O)[C@H](CC(C)C)N2CCCCC2)cc1Cl [10l, 2-((3-chloro-4-methoxyphenyl)amino)-2-oxoethyl (S)-4-methyl-2-(piperidin-1-yl)pentanoate]?
SI HFF-1/T. cruzi [1]: >8; SI HepG2/T. cruzi [2]: >5

How did the “SI HepG2/T. cruzi” value [2] turn out when COc1ccc(NC(=O)COC(=O)[C@H](CC(C)C)N2CCOCC2)cc1Cl [10m, 2-((3-chloro-4-methoxyphenyl)amino)-2-oxoethyl (S)-4-methyl-2-morpholinopentanoate] was run?
Its value is over 35.

With COc1ccc(NC(=O)COC(=O)[C@H](CC(C)C)N2CCN(C(=O)OC(C)(C)C)CC2)cc1Cl [10n, tert-butyl (S)-4-(1-(2-((3-chloro-4-methoxyphenyl)amino)-2-oxoethoxy)-4-methyl-1-oxopentan-2-yl)piperazine-1-carboxylate] as the molecule, how does the “SI HFF-1/T. cruzi” value [1] read?
The value was > 10 and 20.

What about the “SI HepG2/T. cruzi” value [2] of the same molecule?
The value was 16.9.

How did the “SI HFF-1/T. cruzi” value [1] turn out when COc1ccc(NC(=O)COC(=O)[C@H](CC(C)C)N2CCNCC2)cc1Cl.Cl [10o, 2-((3-chloro-4-methoxyphenyl)amino)-2-oxoethyl (S)-4-methyl-2-(piperazin-1-yl)pentanoate hydrochloride] was run?
The value was > 10 and 18.8.

What about the “SI HepG2/T. cruzi” value [2] of the same molecule?
The value was 30.6.

With O=C(Cn1ccnc1[N+](=O)[O-])NCc1ccccc1 [BZ, benznidazole, reference compound] as the molecule, how does the “SI HFF-1/T. cruzi” value [1] read?
Its value is over 33.

What about the “SI HepG2/T. cruzi” value [2] of the same molecule?
Its value is over 21.

Which “SI HepG2/T. cruzi” value [2] does the source give for COc1ccc(NCCOC(=O)C(CC(C)C)N2C(=O)C3CC=CCC3C2=O)cc1Cl (stereo not shown) [compound 7, 2-((3-chloro-4-methoxyphenyl)amino)ethyl 2-(1,3-dioxo-1,3,3a,4,7,7a-hexahydro-2H-isoindol-2-yl)-4-methylpentanoate] here?
Its value is 42.
